Reference: PubChem BioAssay AID1259254 (NCATS, 2017)

- Test: 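Finding genes that stop cells copying their DNA twice in one cycle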 (primary screen)
- System: human HCT116 colorectal cancer cells
- Reagent: single siRNA against human genes
- Time to read-out: 3 days
- Read-out: 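Imaged Hoechst DNA stain sorts each cell into a cycle phase by DNA amount; per plate, G2 fraction set to 0% for non-targeting and 100% for GMNN siRNA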
- Direction: G2 robust z-score and G2 cells, % of GMNN control: higher = more G2 cells, more excess DNA replication
- Rule for the call: 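Active siRNAs have a G2 robust z of 5 or more median absolute deviations over the median, which in these data means about 38% or higher of GMNN control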
This is an unselected part of about 59,000 reagents tested. About 1,550 of all reagents (2.6%) count as active. 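G2 share is only a proxy for re-replication; each gene was hit by three separate siRNAs, and active genes were retested.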 Reagents against one gene are numbered here. Not all columns of the deposit are shown. Not given: the amount of reagent.

{"gene knocked down": "MRRF (mitochondrial ribosome recycling factor)", "reagent no.": 1, "G2 robust z-score": -0.74, "G2 cells, % of GMNN control": -2.24, "Call": "inactive"}
{"gene knocked down": "MRRF (mitochondrial ribosome recycling factor)", "reagent no.": 2, "G2 robust z-score": 0.674, "G2 cells, % of GMNN control": 7.71, "Call": "inactive"}
{"gene knocked down": "MRRF (mitochondrial ribosome recycling factor)", "reagent no.": 3, "G2 robust z-score": 0.818, "G2 cells, % of GMNN control": 8.73, "Call": "inactive"}
{"gene knocked down": "POLK (DNA polymerase kappa)", "reagent no.": 1, "G2 robust z-score": 0.263, "G2 cells, % of GMNN control": 4.81, "Call": "inactive"}
{"gene knocked down": "POLK (DNA polymerase kappa)", "reagent no.": 2, "G2 robust z-score": -1.18, "G2 cells, % of GMNN control": -5.33, "Call": "inactive"}
{"gene knocked down": "POLK (DNA polymerase kappa)", "reagent no.": 3, "G2 robust z-score": -0.933, "G2 cells, % of GMNN control": -3.6, "Call": "inactive"}

Just “G2 robust z-score” (2 entries from above):
MRRF (mitochondrial ribosome recycling factor) #1	-0.74
MRRF (mitochondrial ribosome recycling factor) #2	0.674

Further reagents follow.
{"gene knocked down": "SLC3A2", "reagent no.": 1, "G2 robust z-score": -0.741, "G2 cells, % of GMNN control": -2.25, "Call": "inactive"}
{"gene knocked down": "SLC3A2", "reagent no.": 2, "G2 robust z-score": 0.0411, "G2 cells, % of GMNN control": 3.26, "Call": "inactive"}
{"gene knocked down": "SLC3A2", "reagent no.": 3, "G2 robust z-score": -0.103, "G2 cells, % of GMNN control": 2.24, "Call": "inactive"}
{"gene knocked down": "BOLA1 (bolA family member 1)", "reagent no.": 1, "G2 robust z-score": -0.275, "G2 cells, % of GMNN control": 1.03, "Call": "inactive"}
{"gene knocked down": "BOLA1 (bolA family member 1)", "reagent no.": 2, "G2 robust z-score": -0.181, "G2 cells, % of GMNN control": 1.69, "Call": "inactive"}
{"gene knocked down": "BOLA1 (bolA family member 1)", "reagent no.": 3, "G2 robust z-score": -0.597, "G2 cells, % of GMNN control": -1.24, "Call": "inactive"}
